Here are results for three molecules from article PMC12526889.

By UniProt entry, the sequences of proteins in these tests, tags left out.
UniProt P05804: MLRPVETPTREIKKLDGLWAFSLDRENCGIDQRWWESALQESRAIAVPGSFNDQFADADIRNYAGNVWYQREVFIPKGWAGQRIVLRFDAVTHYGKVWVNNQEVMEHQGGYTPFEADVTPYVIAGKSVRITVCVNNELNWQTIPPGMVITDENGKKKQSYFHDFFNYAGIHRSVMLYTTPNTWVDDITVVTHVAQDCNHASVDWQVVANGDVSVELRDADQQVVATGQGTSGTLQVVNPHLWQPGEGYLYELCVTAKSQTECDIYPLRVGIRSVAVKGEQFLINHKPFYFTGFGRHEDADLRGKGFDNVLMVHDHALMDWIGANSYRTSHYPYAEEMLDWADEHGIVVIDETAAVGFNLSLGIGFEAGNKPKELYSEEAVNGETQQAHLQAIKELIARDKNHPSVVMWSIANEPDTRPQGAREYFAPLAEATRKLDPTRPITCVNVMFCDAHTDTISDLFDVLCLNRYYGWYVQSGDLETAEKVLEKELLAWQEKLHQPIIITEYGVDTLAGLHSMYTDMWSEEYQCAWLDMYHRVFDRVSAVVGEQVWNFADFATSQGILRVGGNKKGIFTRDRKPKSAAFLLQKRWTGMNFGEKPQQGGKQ

Read-outs that look alike come from different tables or passages of the source. Results are given in words; binding and its absence hold for the method and conditions named. In cells and extracts the contact can be indirect. Sequences can lack the tags named with a protein.

Assay in all cases: split reporter; BiFC: fusions to the N-terminal and C-terminal fragments of YFP coinfiltrated with p19 into N. benthamiana leaves; confocal imaging 3 days after inoculation
Assay [1] deals with T1, Yn:CENP-C (BiFC fusion) (Arabidopsis thaliana) (UniProt Q66LG9).
T1 sequence: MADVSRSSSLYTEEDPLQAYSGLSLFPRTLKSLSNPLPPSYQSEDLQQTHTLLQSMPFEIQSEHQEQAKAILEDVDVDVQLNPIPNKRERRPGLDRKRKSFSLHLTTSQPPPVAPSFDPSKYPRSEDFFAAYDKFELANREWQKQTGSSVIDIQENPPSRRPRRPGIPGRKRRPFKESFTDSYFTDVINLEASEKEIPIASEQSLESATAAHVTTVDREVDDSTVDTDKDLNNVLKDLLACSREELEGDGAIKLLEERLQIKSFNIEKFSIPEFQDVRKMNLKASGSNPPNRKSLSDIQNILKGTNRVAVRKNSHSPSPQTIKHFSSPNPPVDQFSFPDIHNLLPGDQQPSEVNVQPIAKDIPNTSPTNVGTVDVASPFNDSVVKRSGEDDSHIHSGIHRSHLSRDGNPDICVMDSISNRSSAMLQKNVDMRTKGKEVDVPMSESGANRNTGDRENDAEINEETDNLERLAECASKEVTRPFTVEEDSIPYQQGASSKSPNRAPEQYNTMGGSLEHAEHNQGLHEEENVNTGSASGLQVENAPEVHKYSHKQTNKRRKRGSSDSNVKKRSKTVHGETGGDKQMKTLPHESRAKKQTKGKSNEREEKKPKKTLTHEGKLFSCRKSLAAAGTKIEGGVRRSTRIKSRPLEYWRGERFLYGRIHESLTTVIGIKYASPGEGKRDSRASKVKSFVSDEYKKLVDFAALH

Assay [2] deals with T1, Yn:CENP-C (BiFC fusion) (Arabidopsis thaliana). The source holds these as a separate data set.
Assay [3] has as its target T2, NDC80 (BiFC fusion) (Arabidopsis thaliana) (UniProt Q9M1G5).
T2 sequence: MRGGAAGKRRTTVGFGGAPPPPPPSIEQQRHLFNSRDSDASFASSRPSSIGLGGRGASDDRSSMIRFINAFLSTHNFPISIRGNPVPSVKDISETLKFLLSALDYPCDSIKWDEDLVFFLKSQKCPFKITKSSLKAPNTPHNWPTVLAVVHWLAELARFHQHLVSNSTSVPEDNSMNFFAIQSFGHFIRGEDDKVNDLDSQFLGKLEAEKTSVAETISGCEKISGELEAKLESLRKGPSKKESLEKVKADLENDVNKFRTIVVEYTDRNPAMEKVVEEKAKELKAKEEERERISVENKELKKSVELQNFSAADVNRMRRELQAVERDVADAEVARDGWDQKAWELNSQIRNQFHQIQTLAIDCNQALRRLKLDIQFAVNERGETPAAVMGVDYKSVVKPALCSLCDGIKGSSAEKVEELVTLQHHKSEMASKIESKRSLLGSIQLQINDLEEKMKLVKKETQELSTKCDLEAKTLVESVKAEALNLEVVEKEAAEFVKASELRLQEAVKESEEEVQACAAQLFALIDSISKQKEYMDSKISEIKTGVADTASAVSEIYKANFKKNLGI

As for “GUS protein (BiFC negative control) (from UniProt P05804 1-603) (enzyme)”, the binding entry in assay [1] is given as “no binding”.

B1: MIS12 fused to Yc (BiFC fusion) (protein, UniProt Q2V0Z5 1-238)
chain: MEGSKSEAVFDSMNLNPQIFINEAINSVEDYVDQAFDFYARDASKSLKIKGSDKQKSQALSNGIARVRGLLLSVIDNRLKLWESYSLRFCFAVPDGFVLPKSEESSSVHQDGLYDLELDAELDSLRDKLNVVGKRSVELDSELQALERSSVSRERSLRLVNEALELYDESSMDEIFKEMTKMASELRASVERLKTRRMKASESAKVKRLKNHGKEFSAMTFDGKLEDLEKFQAELRKM
As to B1, the binding entry in assay [2] was “no binding”.

B2: MPS1 (BiFC fusion) (enzyme, UniProt Q84VX4 1-777)
chain: MDREDNLPVQPDKPPKSLVRPILNLETTSSSSSSSSSSPELLRHLQAAFKRHRPLSKMQTTSIGPRRSVAPQRQASRNTRLVTAEGQRSQDVVTLSQSLAANTLTQDTTNNLAITSVAGESASITQPTVSEHFNPSDRQMDFGKSAVTSLESNLDVQRKSQSLIGTSQDMEWDATNQAEASHLDACIGSKHQNLPSVDSEVSLKSEYKDSSSLAKIQGQLGEFPNFLNQPRTRCSAVGSSWATTTLIHSSSAPMLNATTHVSRSYVEADSNANPHAVQSQGNLPSCCPSSKVSNILHPNKDATASEMPASTNDPEVRVKETDTSKQQQITTGLEAPVGSSIYGSDGQANARLPEELHTSVSSQPQKSDKHEKVASSKGPSAPRKRNYDPDLFFKVNGKLYQRLGKIGSGGSSEVHKVISSDCTIYALKKIKLKGRDYATAYGFCQEIGYLKKLKGKTNIIQLIDYEVTDKTLLQEVLNGTMSNKDGRVKEDGFIYMVLEYGEIDLAHMLSQKWREIEGSDRTIDENWLRFYWQQILQAVNTIHEERIVHSDLKPANFLLVRGFLKLIDFGIAKAINSDTTNIQRDSQVGTLSYMSPEAFMCNESDENGNTIKCGRPSDIWSLGCILYQMVYGRTPFADYKTFWAKFKVITDPNHEITYNQLSNPWLIDLMKKCLAWDRNQRWRIPELLQHPFLAPPIPHEPQVKTIKLFSLIAESCGSDDDKANSMISQLEQLLSNPAPLPRNDVLDSRDQNQQLLSRVSELCIQLQDRLQGLEGEN
Consider B2, for which the binding result in assay [3] is on record as “no binding”.
